Patent US20100234220A1, “Oxooxetanes as Fungicidal Agents” (Bayer CropScience AG, priority 2006, published 2010)
Some of these results come from one statement about several compounds together. For some assays here: At least one compound was matched to its structure with a doubt left.

Tests used:
Format in all cases: in vivo
Puccinia triticina = assay: Puccinia test (wheat)/protective; conditions: protective, 1000 ppm, evaluation 10 days after inoculation
Phytophthora infestans = conditions: tomato, protective, 100 ppm, evaluation 3 days after inoculation
Alternaria solani = assay: Alternaria test (tomato)/protective; conditions: protective, 500 ppm, evaluation 7 days after inoculation
[1] = system: Blumeria graminis f.sp. tritici; assay: Blumeria test (wheat)/protective; conditions: protective, 1000 ppm, evaluation 7 days after inoculation

Compound	efficacy (Puccinia triticina)	efficacy (Phytophthora infestans)	efficacy (Alternaria solani)	efficacy [1]
CC[C@H](C)[C@@H]1C(=O)O[C@H]1C(=O)NCc1cc(OC)cc(OC)c1 [Example 1, (3S)-(1S-Methylpropyl)-(2R)-(3,5-dimethoxybenzylaminocarbonyl)-4-oxooxetane]	≥ 70%	≥ 70%	–	–
CC[C@H](C)[C@@H]1C(=O)O[C@H]1C(=O)NCc1ccc(Cl)cc1 [Example 2, (2R,3S)—N-(4-chlorobenzyl)-3-[(1S)-1-methylpropyl]-4-oxooxetane-2-carboxamide]	≥ 70%	≥ 70%	≥ 70%	–
CC[C@H](C)[C@@H]1C(=O)O[C@H]1C(=O)NCc1cccc(C)c1 [Example 7]	≥ 70%	–	≥ 70%	≥ 70%
CC[C@H](C)[C@@H]1C(=O)O[C@H]1C(=O)NCc1cccc(OC)c1 [Example 10]	≥ 70%	≥ 70%	≥ 70%	≥ 70%
CC[C@H](C)[C@@H]1C(=O)O[C@H]1C(=O)NCc1ccc(OC)cc1 [Example 11]	≥ 70%	≥ 70%	–	≥ 70%
CC[C@H](C)[C@@H]1C(=O)O[C@H]1C(=O)NCc1ccc(Cl)cc1Cl [Example 12]	≥ 70%	≥ 70%	≥ 70%	≥ 70%
CC[C@H](C)[C@@H]1C(=O)O[C@H]1C(=O)NCc1cc(Cl)cc(Cl)c1 [Example 14]	≥ 70%	≥ 70%	≥ 70%	–
CC[C@H](C)[C@@H]1C(=O)O[C@H]1C(=O)NCc1cccc(F)c1 [Example 24]	≥ 70%	≥ 70%	≥ 70%	≥ 70%
CC[C@H](C)[C@@H]1C(=O)O[C@H]1C(=O)NCc1ccc(F)cc1 [Example 25]	≥ 70%	–	≥ 70%	≥ 70%
CC[C@H](C)[C@@H]1C(=O)O[C@H]1C(=O)NCc1ccc(C(F)(F)F)c(Cl)c1 [Example 33a]	–	≥ 70%	–	–
CC[C@H](C)[C@@H]1C(=O)O[C@H]1C(=O)NCc1cccc(OC(F)(F)F)c1 [Example 37]	≥ 70%	–	≥ 70%	≥ 70%
CC[C@H](C)[C@@H]1C(=O)O[C@H]1C(=O)NCc1ccc(OC(F)F)cc1 [Example 41]	–	≥ 70%	–	–
C#CCOc1ccc(CNC(=O)[C@@H]2OC(=O)[C@H]2[C@@H](C)CC)cc1OC [Example 54a]	–	≥ 70%	–	–
CCC(C)C1C(=O)OC1C(=O)NC(C)c1ccc(Cl)cc1 (centres unmarked) [Example 1133]	–	≥ 70%	–	–
CCC(C)C1C(=O)OC1C(=O)NC(C)c1ccc(OC)cc1 (centres unmarked) [Example 1139]	–	≥ 70%	–	–
CCC(C)C1C(=O)OC1C(=O)NCc1ccc(C(F)(F)F)c(F)c1 (centres unmarked) [Example 2360]	≥ 70%	≥ 70%	–	–
CCC(C)C1C(=O)OC1C(=O)NCc1ccc(Cl)cc1C(F)(F)F (centres unmarked) [Example 2361]	≥ 70%	≥ 70%	–	–
CCC(C)C1C(=O)OC1C(=O)NCc1ccc(F)cc1C(F)(F)F (centres unmarked) [Example 2362]	≥ 70%	≥ 70%	–	–
CCC(C)C1C(=O)OC1C(=O)NCc1ccc(OC(F)(F)F)cc1Cl (centres unmarked) [Example 2365]	≥ 70%	≥ 70%	–	–
CCC(C)C1C(=O)OC1C(=O)NCc1ccccc1 (centres unmarked) [Example 2498]	≥ 70%	≥ 70%	–	≥ 70%
CCC(C)C1C(=O)OC1C(=O)Nc1cc(Cl)cc(Cl)c1 (centres unmarked) [Example 2509]	–	≥ 70%	–	–
CCC(C)C1C(=O)OC1C(=O)Nc1cccc(F)c1 (centres unmarked) [Example 2513]	–	≥ 70%	–	–
